Measured values: article PMC2214798
No constants are given. Whether binding was seen depends on the method and setting. Binding seen in cells or lysates may run through a third protein.

T1: RGL, muscle-specific glycogen-targeting subunit of protein phosphatase 1 (wild type, full length) (mouse (endogenous in skeletal muscle)) (UniProt Q99MR9)
T1 sequence: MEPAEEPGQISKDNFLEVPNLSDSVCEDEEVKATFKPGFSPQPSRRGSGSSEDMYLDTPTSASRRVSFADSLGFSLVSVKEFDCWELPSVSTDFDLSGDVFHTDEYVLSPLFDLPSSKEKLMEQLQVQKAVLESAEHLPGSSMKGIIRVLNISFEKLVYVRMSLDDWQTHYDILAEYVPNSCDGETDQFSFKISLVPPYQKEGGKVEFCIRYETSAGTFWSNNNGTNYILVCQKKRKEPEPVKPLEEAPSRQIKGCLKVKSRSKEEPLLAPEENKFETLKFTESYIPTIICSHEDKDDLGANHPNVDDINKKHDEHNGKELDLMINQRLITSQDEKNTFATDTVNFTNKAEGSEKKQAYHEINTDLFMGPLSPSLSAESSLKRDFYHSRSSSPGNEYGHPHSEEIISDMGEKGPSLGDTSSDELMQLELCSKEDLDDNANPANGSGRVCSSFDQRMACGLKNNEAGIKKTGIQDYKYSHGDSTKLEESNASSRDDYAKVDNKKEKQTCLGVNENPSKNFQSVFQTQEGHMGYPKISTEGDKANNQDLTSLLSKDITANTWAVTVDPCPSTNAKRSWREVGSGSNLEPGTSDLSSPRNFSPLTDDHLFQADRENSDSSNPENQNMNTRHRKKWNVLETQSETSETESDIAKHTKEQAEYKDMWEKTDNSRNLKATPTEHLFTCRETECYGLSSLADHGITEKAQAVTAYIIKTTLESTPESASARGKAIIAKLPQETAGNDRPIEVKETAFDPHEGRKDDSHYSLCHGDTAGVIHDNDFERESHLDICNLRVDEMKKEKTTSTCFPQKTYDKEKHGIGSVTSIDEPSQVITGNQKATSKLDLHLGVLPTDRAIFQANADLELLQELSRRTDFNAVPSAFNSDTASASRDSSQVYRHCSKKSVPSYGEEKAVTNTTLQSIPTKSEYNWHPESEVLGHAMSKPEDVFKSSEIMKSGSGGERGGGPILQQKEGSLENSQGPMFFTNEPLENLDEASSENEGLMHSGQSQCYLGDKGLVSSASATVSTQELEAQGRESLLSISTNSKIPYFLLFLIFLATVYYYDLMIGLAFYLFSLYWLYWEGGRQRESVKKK

T2: glycogen synthase (GS), skeletal muscle (mouse (endogenous in skeletal muscle)) (UniProt Q9Z1E4)
T2 sequence: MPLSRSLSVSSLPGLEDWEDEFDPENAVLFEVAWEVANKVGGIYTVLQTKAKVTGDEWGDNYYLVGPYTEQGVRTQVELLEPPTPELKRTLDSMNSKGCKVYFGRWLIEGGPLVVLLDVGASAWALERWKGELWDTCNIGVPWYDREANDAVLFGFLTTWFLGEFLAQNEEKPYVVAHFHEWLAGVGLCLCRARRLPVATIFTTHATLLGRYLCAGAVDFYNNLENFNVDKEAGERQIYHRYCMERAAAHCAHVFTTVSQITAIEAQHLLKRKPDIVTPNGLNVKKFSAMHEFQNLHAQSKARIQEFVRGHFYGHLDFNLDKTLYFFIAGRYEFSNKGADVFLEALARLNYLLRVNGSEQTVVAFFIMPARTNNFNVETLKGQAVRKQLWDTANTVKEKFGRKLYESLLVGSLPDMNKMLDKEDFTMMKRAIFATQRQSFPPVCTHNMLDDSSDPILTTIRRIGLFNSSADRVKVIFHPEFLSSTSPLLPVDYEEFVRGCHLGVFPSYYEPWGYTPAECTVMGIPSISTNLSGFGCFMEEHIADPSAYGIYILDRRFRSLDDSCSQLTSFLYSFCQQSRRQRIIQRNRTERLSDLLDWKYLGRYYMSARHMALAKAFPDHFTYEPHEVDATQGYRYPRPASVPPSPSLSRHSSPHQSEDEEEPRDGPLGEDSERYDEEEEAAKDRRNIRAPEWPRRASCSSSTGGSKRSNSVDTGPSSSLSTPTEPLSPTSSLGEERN


Experiments:
[1] = molecular target: T1, RGL, muscle-specific glycogen-targeting subunit of protein phosphatase 1 (wild type, full length) (mouse (endogenous in skeletal muscle)); experiment: co-IP; RGL immunoprecipitated from skeletal muscle extracts of WT, RGL kin heterozygous and homozygous mice with antibodies against the N-terminal 262 residues or the C-terminal 325-1042 amino acids of RGL; Western blots for RGL and GS
[2] = molecular target: T2, glycogen synthase (GS), skeletal muscle (mouse (endogenous in skeletal muscle)); experiment: pull-down; GS of skeletal muscle extracts (WT and RGL kin homozygous mice) pulled down through GST-GN(297–333), before and after α-amylase digestion of glycogen; blot for RGL associated with GS

Binder	binding [1]	binding [2]
glycogen synthase (GS), skeletal muscle (enzyme, UniProt Q9Z1E4 1-738) MPLSRSLSVSSLPGLEDWEDEFDPENAVLFEVAWEVANKVGGIYTVLQTKAKVTGDEWGDNYYLVGPYTEQGVRTQVELLEPPTPELKRTLDSMNSKGCKVYFGRWLIEGGPLVVLLDVGASAWALERWKGELWDTCNIGVPWYDREANDAVLFGFLTTWFLGEFLAQNEEKPYVVAHFHEWLAGVGLCLCRARRLPVATIFTTHATLLGRYLCAGAVDFYNNLENFNVDKEAGERQIYHRYCMERAAAHCAHVFTTVSQITAIEAQHLLKRKPDIVTPNGLNVKKFSAMHEFQNLHAQSKARIQEFVRGHFYGHLDFNLDKTLYFFIAGRYEFSNKGADVFLEALARLNYLLRVNGSEQTVVAFFIMPARTNNFNVETLKGQAVRKQLWDTANTVKEKFGRKLYESLLVGSLPDMNKMLDKEDFTMMKRAIFATQRQSFPPVCTHNMLDDSSDPILTTIRRIGLFNSSADRVKVIFHPEFLSSTSPLLPVDYEEFVRGCHLGVFPSYYEPWGYTPAECTVMGIPSISTNLSGFGCFMEEHIADPSAYGIYILDRRFRSLDDSCSQLTSFLYSFCQQSRRQRIIQRNRTERLSDLLDWKYLGRYYMSARHMALAKAFPDHFTYEPHEVDATQGYRYPRPASVPPSPSLSRHSSPHQSEDEEEPRDGPLGEDSERYDEEEEAAKDRRNIRAPEWPRRASCSSSTGGSKRSNSVDTGPSSSLSTPTEPLSPTSSLGEERN	no binding	–
RGL, muscle-specific glycogen-targeting subunit of protein phosphatase 1 (wild type, full length) (protein, UniProt Q99MR9 1-1089) MEPAEEPGQISKDNFLEVPNLSDSVCEDEEVKATFKPGFSPQPSRRGSGSSEDMYLDTPTSASRRVSFADSLGFSLVSVKEFDCWELPSVSTDFDLSGDVFHTDEYVLSPLFDLPSSKEKLMEQLQVQKAVLESAEHLPGSSMKGIIRVLNISFEKLVYVRMSLDDWQTHYDILAEYVPNSCDGETDQFSFKISLVPPYQKEGGKVEFCIRYETSAGTFWSNNNGTNYILVCQKKRKEPEPVKPLEEAPSRQIKGCLKVKSRSKEEPLLAPEENKFETLKFTESYIPTIICSHEDKDDLGANHPNVDDINKKHDEHNGKELDLMINQRLITSQDEKNTFATDTVNFTNKAEGSEKKQAYHEINTDLFMGPLSPSLSAESSLKRDFYHSRSSSPGNEYGHPHSEEIISDMGEKGPSLGDTSSDELMQLELCSKEDLDDNANPANGSGRVCSSFDQRMACGLKNNEAGIKKTGIQDYKYSHGDSTKLEESNASSRDDYAKVDNKKEKQTCLGVNENPSKNFQSVFQTQEGHMGYPKISTEGDKANNQDLTSLLSKDITANTWAVTVDPCPSTNAKRSWREVGSGSNLEPGTSDLSSPRNFSPLTDDHLFQADRENSDSSNPENQNMNTRHRKKWNVLETQSETSETESDIAKHTKEQAEYKDMWEKTDNSRNLKATPTEHLFTCRETECYGLSSLADHGITEKAQAVTAYIIKTTLESTPESASARGKAIIAKLPQETAGNDRPIEVKETAFDPHEGRKDDSHYSLCHGDTAGVIHDNDFERESHLDICNLRVDEMKKEKTTSTCFPQKTYDKEKHGIGSVTSIDEPSQVITGNQKATSKLDLHLGVLPTDRAIFQANADLELLQELSRRTDFNAVPSAFNSDTASASRDSSQVYRHCSKKSVPSYGEEKAVTNTTLQSIPTKSEYNWHPESEVLGHAMSKPEDVFKSSEIMKSGSGGERGGGPILQQKEGSLENSQGPMFFTNEPLENLDEASSENEGLMHSGQSQCYLGDKGLVSSASATVSTQELEAQGRESLLSISTNSKIPYFLLFLIFLATVYYYDLMIGLAFYLFSLYWLYWEGGRQRESVKKK	–	no binding
